Reference: the supplement of paper PMC10849652
Some of the results follow.

Chains of the proteins cited; added tags and fusions are not shown. Lines headed by an entry give the natural chain unless they say otherwise; changes in a name come on top.
UniProt Q8IWS0: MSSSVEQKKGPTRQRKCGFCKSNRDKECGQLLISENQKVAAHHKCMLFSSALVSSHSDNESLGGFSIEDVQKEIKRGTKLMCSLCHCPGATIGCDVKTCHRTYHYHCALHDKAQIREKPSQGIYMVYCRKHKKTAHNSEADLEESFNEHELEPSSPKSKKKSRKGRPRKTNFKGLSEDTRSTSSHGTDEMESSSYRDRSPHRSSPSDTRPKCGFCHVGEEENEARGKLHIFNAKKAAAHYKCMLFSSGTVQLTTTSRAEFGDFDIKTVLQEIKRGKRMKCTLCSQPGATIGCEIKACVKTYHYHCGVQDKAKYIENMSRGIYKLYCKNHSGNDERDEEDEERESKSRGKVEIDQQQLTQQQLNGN
UniProt Q93100: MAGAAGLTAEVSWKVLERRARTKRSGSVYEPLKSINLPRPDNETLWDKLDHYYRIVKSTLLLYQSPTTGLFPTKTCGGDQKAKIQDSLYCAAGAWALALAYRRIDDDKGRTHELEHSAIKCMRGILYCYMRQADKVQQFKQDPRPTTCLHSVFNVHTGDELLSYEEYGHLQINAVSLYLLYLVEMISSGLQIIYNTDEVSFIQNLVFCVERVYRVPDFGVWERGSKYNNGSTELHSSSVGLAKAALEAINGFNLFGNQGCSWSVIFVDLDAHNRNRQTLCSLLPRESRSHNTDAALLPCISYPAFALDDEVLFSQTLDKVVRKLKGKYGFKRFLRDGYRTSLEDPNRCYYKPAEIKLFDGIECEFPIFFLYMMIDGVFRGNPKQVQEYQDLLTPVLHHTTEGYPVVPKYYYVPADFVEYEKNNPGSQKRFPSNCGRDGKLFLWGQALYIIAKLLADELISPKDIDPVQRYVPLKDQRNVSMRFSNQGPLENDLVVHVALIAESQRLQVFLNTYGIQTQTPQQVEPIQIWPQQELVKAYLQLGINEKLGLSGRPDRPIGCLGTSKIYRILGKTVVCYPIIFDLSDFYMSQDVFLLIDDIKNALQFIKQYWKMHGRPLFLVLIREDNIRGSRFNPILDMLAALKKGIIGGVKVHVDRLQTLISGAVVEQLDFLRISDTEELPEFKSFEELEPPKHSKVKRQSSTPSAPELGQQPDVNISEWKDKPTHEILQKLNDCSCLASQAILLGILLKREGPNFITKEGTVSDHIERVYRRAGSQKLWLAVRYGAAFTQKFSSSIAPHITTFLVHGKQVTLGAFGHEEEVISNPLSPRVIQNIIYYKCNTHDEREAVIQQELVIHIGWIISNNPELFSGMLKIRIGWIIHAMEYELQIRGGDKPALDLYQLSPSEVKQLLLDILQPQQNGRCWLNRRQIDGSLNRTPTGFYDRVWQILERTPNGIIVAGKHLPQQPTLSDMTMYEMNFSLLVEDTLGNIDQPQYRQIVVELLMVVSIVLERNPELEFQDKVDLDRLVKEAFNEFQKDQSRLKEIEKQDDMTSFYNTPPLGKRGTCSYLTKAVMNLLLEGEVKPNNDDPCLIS
PIGBOS1, A0A0B4J2F0, UniProt A0A0B4J2F0, whole entry, looked up: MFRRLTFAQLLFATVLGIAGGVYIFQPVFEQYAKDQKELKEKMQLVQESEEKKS
UniProt Q6P4A8: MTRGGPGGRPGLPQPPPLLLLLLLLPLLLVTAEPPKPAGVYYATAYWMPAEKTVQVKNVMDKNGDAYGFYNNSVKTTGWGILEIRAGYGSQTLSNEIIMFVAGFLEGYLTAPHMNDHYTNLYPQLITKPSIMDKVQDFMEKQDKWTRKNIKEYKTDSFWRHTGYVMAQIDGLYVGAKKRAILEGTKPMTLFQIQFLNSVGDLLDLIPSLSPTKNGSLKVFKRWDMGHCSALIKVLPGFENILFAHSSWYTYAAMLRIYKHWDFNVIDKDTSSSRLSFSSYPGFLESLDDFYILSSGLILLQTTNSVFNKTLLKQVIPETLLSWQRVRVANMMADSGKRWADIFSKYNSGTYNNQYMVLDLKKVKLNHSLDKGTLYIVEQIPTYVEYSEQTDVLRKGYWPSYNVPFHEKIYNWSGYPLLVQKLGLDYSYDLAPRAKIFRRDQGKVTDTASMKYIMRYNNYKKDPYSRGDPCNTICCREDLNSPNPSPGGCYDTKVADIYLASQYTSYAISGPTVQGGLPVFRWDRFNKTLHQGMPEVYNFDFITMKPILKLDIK
UniProt Q8TBX8: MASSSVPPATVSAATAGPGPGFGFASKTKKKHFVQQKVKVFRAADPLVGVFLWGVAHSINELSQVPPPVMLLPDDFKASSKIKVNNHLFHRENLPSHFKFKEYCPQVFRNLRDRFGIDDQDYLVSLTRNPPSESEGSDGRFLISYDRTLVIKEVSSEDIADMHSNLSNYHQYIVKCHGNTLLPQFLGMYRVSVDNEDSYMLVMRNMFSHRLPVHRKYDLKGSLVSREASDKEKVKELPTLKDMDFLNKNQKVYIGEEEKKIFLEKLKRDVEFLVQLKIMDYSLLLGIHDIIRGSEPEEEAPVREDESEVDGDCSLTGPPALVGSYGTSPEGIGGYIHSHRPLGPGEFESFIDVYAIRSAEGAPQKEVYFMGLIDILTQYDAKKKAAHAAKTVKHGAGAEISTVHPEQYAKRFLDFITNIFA
UniProt O95394: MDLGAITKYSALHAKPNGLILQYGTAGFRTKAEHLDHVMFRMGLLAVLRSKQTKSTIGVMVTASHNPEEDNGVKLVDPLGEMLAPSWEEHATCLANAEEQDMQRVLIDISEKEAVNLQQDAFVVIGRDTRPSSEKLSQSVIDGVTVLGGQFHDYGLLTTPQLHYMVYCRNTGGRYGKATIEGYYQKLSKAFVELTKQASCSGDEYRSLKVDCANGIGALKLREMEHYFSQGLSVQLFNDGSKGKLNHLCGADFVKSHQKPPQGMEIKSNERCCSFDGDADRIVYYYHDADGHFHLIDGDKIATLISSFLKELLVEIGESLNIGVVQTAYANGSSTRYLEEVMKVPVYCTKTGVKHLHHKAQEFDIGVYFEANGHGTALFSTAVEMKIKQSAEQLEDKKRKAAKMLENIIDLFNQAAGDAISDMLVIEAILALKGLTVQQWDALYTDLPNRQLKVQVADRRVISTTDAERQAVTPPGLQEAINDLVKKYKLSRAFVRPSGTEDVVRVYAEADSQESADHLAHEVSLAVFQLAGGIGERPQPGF
UniProt Q9H814, whole entry, looked up: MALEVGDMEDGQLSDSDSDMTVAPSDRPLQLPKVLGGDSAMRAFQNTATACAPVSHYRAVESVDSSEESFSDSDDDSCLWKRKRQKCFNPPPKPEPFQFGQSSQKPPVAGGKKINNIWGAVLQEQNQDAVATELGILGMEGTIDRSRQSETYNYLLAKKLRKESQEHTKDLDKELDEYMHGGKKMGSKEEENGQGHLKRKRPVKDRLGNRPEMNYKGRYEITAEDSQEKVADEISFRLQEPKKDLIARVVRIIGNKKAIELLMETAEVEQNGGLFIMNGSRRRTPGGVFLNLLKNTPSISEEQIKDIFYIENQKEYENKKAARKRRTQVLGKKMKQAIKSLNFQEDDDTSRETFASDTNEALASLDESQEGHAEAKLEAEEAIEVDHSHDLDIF
UniProt Q969N2: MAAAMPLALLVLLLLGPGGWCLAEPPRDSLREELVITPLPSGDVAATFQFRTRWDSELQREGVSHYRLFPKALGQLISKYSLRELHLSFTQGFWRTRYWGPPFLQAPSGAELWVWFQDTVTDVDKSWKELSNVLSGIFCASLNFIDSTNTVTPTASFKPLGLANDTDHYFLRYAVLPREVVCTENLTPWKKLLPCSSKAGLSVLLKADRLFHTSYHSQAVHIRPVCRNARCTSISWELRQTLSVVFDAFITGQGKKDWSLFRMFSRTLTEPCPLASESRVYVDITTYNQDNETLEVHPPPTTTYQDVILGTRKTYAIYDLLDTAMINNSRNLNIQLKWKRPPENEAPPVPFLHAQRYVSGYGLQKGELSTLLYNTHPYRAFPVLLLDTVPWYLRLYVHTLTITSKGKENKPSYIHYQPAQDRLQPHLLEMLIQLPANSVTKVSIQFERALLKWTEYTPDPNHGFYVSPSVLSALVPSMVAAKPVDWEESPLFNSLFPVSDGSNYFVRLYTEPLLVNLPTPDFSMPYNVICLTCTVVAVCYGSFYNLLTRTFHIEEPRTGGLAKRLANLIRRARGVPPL
UniProt O95336: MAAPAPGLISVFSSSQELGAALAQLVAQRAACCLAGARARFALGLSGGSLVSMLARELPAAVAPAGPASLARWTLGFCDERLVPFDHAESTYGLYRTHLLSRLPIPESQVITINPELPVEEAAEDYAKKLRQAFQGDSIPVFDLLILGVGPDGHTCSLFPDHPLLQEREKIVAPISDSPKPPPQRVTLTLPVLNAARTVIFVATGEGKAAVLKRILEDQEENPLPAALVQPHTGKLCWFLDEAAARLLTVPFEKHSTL
UniProt Q8N0Y7: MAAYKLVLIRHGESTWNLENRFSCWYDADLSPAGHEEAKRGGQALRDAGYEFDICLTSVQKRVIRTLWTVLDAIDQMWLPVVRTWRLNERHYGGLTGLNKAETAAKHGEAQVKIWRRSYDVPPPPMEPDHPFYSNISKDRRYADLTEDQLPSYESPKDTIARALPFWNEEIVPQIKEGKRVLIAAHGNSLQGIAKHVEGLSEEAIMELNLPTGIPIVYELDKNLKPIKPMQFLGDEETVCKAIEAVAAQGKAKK
UniProt Q00169: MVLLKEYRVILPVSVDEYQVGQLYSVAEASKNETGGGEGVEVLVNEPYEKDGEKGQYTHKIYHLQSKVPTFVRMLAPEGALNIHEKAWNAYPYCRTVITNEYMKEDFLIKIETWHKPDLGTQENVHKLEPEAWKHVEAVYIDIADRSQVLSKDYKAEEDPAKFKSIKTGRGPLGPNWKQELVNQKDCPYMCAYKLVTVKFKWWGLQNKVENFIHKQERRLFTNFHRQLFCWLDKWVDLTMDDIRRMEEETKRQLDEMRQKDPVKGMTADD
UniProt P52209: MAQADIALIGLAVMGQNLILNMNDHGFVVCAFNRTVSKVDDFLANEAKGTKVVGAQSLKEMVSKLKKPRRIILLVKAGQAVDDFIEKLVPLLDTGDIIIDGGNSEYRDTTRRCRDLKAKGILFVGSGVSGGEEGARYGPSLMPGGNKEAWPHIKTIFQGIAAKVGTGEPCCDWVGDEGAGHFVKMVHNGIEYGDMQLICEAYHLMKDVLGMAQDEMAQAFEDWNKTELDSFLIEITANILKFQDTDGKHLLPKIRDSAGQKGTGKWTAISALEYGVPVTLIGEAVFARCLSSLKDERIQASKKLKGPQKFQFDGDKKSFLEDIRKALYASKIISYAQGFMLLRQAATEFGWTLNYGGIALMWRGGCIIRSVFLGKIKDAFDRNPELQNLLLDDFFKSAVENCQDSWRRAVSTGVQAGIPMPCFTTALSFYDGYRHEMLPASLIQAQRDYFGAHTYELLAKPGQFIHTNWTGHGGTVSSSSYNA
UniProt P42336, whole entry, looked up: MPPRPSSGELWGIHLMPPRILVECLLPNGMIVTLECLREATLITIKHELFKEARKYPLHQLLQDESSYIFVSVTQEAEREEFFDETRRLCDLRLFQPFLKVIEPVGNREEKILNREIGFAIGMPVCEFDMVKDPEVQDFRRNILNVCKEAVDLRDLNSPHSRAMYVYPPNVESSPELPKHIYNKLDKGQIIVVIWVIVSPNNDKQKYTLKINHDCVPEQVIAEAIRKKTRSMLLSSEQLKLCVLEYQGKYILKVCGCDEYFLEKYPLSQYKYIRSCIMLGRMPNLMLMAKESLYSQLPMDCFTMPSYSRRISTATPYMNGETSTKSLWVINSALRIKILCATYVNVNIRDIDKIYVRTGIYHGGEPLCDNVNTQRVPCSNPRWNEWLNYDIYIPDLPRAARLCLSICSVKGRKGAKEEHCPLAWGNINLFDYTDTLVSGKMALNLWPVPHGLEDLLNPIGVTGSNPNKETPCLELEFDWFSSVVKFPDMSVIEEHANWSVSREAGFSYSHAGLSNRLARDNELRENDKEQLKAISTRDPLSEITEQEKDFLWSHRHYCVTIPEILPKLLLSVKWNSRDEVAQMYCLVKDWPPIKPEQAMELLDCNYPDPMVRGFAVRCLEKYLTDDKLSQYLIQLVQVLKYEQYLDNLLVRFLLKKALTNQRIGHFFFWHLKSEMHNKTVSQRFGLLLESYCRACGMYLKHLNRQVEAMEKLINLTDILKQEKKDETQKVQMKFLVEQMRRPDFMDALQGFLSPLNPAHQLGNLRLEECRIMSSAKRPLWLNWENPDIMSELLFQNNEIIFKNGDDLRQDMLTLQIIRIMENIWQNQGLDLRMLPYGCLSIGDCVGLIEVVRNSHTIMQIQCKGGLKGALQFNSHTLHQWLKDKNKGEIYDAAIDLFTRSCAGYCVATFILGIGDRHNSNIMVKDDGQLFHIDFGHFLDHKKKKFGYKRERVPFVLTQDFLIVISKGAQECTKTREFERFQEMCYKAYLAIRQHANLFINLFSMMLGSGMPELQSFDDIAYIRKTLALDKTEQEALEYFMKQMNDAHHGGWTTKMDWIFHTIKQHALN
UniProt Q13526, whole entry, looked up: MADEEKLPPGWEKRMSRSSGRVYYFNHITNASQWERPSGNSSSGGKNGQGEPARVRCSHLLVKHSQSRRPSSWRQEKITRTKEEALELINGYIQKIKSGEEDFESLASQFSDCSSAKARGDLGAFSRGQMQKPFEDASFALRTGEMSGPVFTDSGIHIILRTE

What was measured:
Test in all cases: log2 fold change, soluble protein after heating vs DMSO (PISA); higher = thermal stabilisation; K562 cells, 10 uM, 30 min; active = over 0.2 and 3.5 SD of the protein, either way, in both replicates (recomputed)
erlotinib = compound: C#Cc1cccc(Nc2ncnc3cc(OCCOC)c(OCCOC)cc23)c1 [erlotinib]
Method in brief: (§1)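 K562 cells at 2×10^6 cells/mL were treated for 30 min with 10 μM compound, and aliquots were heated for 3 min over 48°C-58°C before pooling. Extraction used PBS with 0.5% NP-40 at 4°C, and soluble protein was the supernatant after 21,000xg for 90 min, measured by TMTpro 16plex LC-MS/MS with channel sums equalised. Thermal stability values, relative to control samples and from duplicates, are log2 fold changes.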

[1] = compound: C/C(=N\NC(=O)C1=CC(=CC=C1)S(=O)(=O)N2CCOCC2)/C3=C(C=CC(=C3)Cl)O
Method in brief: as §1

[2] = compound: C1=CC(=C(C=C1Cl)C2=NC3=NC=CN=C3C(=N2)NC4=CC=NC=C4)F
Method in brief: as §1

[3] = compound: C1=CC(=CC=C1C2=NC3=C(N2)C=C(C=C3)C(=O)N)OC4=CC=C(C=C4)Cl
Method in brief: as §1

[4] = compound: C1=CC2=C(C=CC(=C2)/C=C\3/C(=O)NC(=NCC4=CC=CS4)S3)N=C1
Method in brief: as §1

[5] = compound: C1=CC2=NC=CN=C2C=C1/C=C/3\C(=O)NC(=O)S3
Method in brief: as §1

[6] = compound: C1=CC=C(C=C1)C2=NC(=C(N2)C3=CC=NC=C3)C4=CC(=C(C=C4)Cl)O
Method in brief: as §1

[7] = compound: C1=CC=C2C(=C1)C3=NNC4=CC=CC(=C43)C2=O
Method in brief: as §1

[8] = compound: C1CCN(C1)C(=O)NC2=CC=CC(=C2)NC3=NC=C(C(=N3)NCCC4=CN=CN4)Br
Method in brief: as §1

[9] = compound: C1CN(CCC1(CC2=CC=C(C=C2)Cl)N)C3=NC=NC4=C3C=CN4
Method in brief: as §1

Measured: log2 fold change

PGM2 (UniProt Q96G03)
inactive: erlotinib 0.001 | [1] 0.001 | [2] 0.037 | [3] 0.015 | [4] -0.018 | [5] 0.003 | [6] -0.008 | [7] -0.024 | [8] 0.015 | [9] 0.069

PHF6 (UniProt Q8IWS0)
inactive: erlotinib -0.141 | [1] -0.112 | [2] -0.43 | [3] 0.07 | [4] -0.099 | [5] 0.012 | [6] -0.017 | [7] 0.034 | [8] -0.051 | [9] -0.092

PGP (UniProt A6NDG6)
inactive: erlotinib -0.005 | [1] 0.036 | [2] 0.02 | [3] -0.029 | [4] 0.016 | [5] 0.039 | [6] -0.01 | [7] 0.005 | [8] 0.001 | [9] 0.016

PIP (UniProt P12273)
inactive: erlotinib 0.179 | [1] -0.109 | [2] -0.26 | [3] -0.374 | [4] 0.139 | [5] -0.351 | [6] 0.224 | [7] -0.733 | [8] -0.325 | [9] -0.513

PLCB3 (UniProt Q01970)
inactive: erlotinib -0.004 | [1] 0.028 | [2] 0.005 | [3] 0.023 | [4] 0.054 | [5] 0.016 | [6] -0.011 | [7] 0.034 | [8] -0.057 | [9] -0.07

PHACTR4 isoform 2 (UniProt Q8IZ21)
inactive: erlotinib 0.008 | [1] -0.028 | [2] 0.038 | [3] 0 | [4] 0.035 | [5] 0.023 | [6] -0.002 | [7] -0.059 | [8] -0.042 | [9] 0.051

PHKB isoform 3 (UniProt Q93100)
inactive: erlotinib -0.06 | [1] -0.027 | [2] 0.058 | [3] -0.008 | [4] 0.049 | [5] -0.023 | [6] -0.011 | [7] 0.048 | [8] 0.022 | [9] 0.039

PGRMC1 (UniProt O00264)
inactive: erlotinib 0.012 | [1] -0.001 | [2] 0.033 | [3] -0.014 | [4] -0.029 | [5] 0.017 | [6] 0.072 | [7] -0.026 | [8] 0.034 | [9] 0.03

PIGBOS1, A0A0B4J2F0
inactive: erlotinib 0.017 | [1] -0.095 | [2] 0.287 | [3] 0.038 | [4] 0.072 | [5] 0.055 | [6] -0.082 | [7] 0.063 | [8] -0.018 | [9] -0.062

PLCL1 (UniProt Q15111)
inactive: erlotinib 0.136 | [1] -0.122 | [2] 0.117 | [3] 0.095 | [4] -0.042 | [5] 0.007 | [6] 0.098 | [7] 0.051 | [8] 0 | [9] -0.376

PLBD1 (UniProt Q6P4A8)
inactive: erlotinib 0.05 | [1] -0.008 | [2] 0.024 | [3] 0.037 | [4] 0.09 | [5] 0.024 | [6] 0.036 | [7] -0.01 | [8] 0.037 | [9] 0.009

PIP4K2C (UniProt Q8TBX8)
inactive: erlotinib 0.482 | [1] -0.063 | [2] 0.023 | [3] -0.129 | [4] 0.059 | [5] 0.575 | [6] 0.139 | [7] 0.21 | [8] 0.493 | [9] -0.025

PLD3 (UniProt Q8IV08)
inactive: erlotinib -0.012 | [1] 0.029 | [2] 0.054 | [3] 0.023 | [4] 0.04 | [5] 0.024 | [6] -0.061 | [7] 0.006 | [8] 0.001 | [9] 0.048

PGM3 isoform 4 (UniProt O95394)
inactive: erlotinib 0.001 | [1] 0.094 | [2] 0.045 | [3] 0.103 | [4] 0.092 | [5] 0.001 | [6] 0.042 | [7] 0.064 | [8] -0.005 | [9] -0.053

PHAX (UniProt Q9H814)
inactive: erlotinib -0.004 | [1] 0.042 | [2] 0.045 | [3] 0.009 | [4] 0.023 | [5] 0.054 | [6] -0.047 | [7] -0.101 | [8] -0.013 | [9] 0.059

PIGU (UniProt Q9H490)
inactive: erlotinib 0.018 | [1] 0.035 | [2] -0.059 | [3] -0.006 | [4] -0.133 | [5] 0.102 | [6] 0.043 | [7] 0.066 | [8] -0.11 | [9] -0.004

PIGT (UniProt Q969N2)
inactive: erlotinib -0.045 | [1] 0.037 | [2] 0.002 | [3] 0.034 | [4] 0.009 | [5] -0.001 | [6] 0.011 | [7] 0.018 | [8] -0.006 | [9] -0.003

PGPEP1 (UniProt Q9NXJ5)
inactive: erlotinib 0.1 | [1] 0.139 | [2] -0.02 | [3] 0.061 | [4] -0.092 | [5] 0.032 | [6] -0.092 | [7] 0.022

PITPNB isoform 3 (UniProt P48739)
inactive: erlotinib -0.004 | [1] 0.042 | [2] 0.019 | [3] 0.014 | [4] 0.027 | [5] 0.017 | [6] 0.036 | [7] -0.008 | [8] 0.009 | [9] 0.01

PGLS (UniProt O95336)
inactive: erlotinib -0.025 | [1] 0.034 | [2] 0.205 | [3] 0.046 | [4] 0.069 | [5] 0.107 | [6] 0.121 | [7] 0.032 | [8] 0.019 | [9] -0.027

PI4KA (UniProt P42356)
inactive: erlotinib 0.021 | [1] 0.056 | [2] -0.146 | [3] -0.017 | [4] 0.012 | [5] 0.119 | [6] 0.022 | [7] -0.012 | [8] -0.047 | [9] -0.192

Pulled one by one from above, 2 records:
PIGT (UniProt Q969N2)
inactive: erlotinib -0.045 | [1] 0.037 | [2] 0.002 | [3] 0.034 | [4] 0.009 | [5] -0.001 | [6] 0.011 | [7] 0.018 | [8] -0.006 | [9] -0.003

PITPNB isoform 3 (UniProt P48739)
inactive: erlotinib -0.004 | [1] 0.042 | [2] 0.019 | [3] 0.014 | [4] 0.027 | [5] 0.017 | [6] 0.036 | [7] -0.008 | [8] 0.009 | [9] 0.01

(list continues)

PLEC (UniProt Q15149)
inactive: erlotinib -0.016 | [1] -0.059 | [2] -0.154 | [3] -0.017 | [4] -0.005 | [5] -0.042 | [6] -0.003 | [7] 0.032 | [8] -0.004 | [9] -0.134

PGAM4 (UniProt Q8N0Y7)
inactive: erlotinib 0.034 | [1] -0.01 | [2] 0.034 | [3] 0.002 | [4] -0.04 | [5] 0.044 | [6] -0.015 | [7] -0.014 | [8] 0.022 | [9] 0.09

PITPNA (UniProt Q00169)
inactive: erlotinib 0.017 | [1] 0.016 | [2] 0.091 | [3] -0.004 | [4] 0.007 | [5] 0.031 | [6] 0.017 | [7] -0.008 | [8] -0.004 | [9] 0.029

PGD (UniProt P52209)
inactive: erlotinib 0.025 | [1] 0.02 | [2] 0.086 | [3] 0.009 | [4] -0.015 | [5] -0.014 | [6] -0.018 | [7] 0.034 | [8] 0.021 | [9] 0.045

PIK3CA (UniProt P42336)
inactive: erlotinib 0.038 | [1] 0.045 | [2] -0.101 | [3] 0.056 | [4] 0.028 | [5] -0.034 | [6] -0.055 | [7] 0.136

PFKM isoform 3 (UniProt P08237)
inactive: erlotinib -0.03 | [1] 0.011 | [2] 0.033 | [3] 0.017 | [4] 0.042 | [5] 0.007 | [6] 0.012 | [7] -0.019 | [8] 0.012 | [9] 0.073

PICALM (UniProt Q13492)
inactive: erlotinib 0.03 | [1] 0.012 | [2] 0.028 | [3] -0.02 | [4] 0.019 | [5] 0.01 | [6] 0.03 | [7] -0.018 | [8] 0.014 | [9] 0.041

PIN1 (UniProt Q13526)
inactive: erlotinib -0.015 | [1] 0.097 | [2] 0.003 | [3] -0.002 | [4] -0.008 | [5] 0.016 | [6] 0.049 | [7] -0.001 | [8] -0.062 | [9] -0.017

PGGHG (UniProt Q32M88)
active: [4] -0.44
inactive: erlotinib 0.059 | [1] 0.114 | [2] 0.024 | [3] 0.002 | [5] 0.048 | [6] -0.049 | [7] -0.248 | [8] -0.225 | [9] 0.119
